Source: PubChem BioAssay AID1224828 (NIAID, 2016)
Shown is one part, drawn at random, of about 17,000 deposited reagents. Of all reagents, 762 (4.5%) were called active. 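Active calls include both raised and lowered p65 entry, mostly lowered; wells with fewer than 50 cells lack a z-score.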 The raw values are shown without normalisation.

Aim: 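Find genes required for NF-kappaB p65 moving into the nucleus after LPS in mouse macrophages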 (primary screen)
Cells: mouse RAW264.7 G9 macrophage reporter cells (GFP-p65, Tnf promoter-mCherry)
Reagents: siRNA pool against mouse genes, 100 nM
Timing: 2 days siRNA transfection, then 40 min LPS before fixation
Challenge: LPS (Salmonella minnesota R595) at 10 ng/ml
Detection: 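Microscopy ratio of nuclear to perinuclear-ring GFP-p65 signal, scaled to the plate median; gene score is the average of two replicate robust z-scores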
Scale: p65 translocation robust z-score: higher = more nuclear NF-kappaB p65 after LPS than the plate median; nuclear/cytoplasmic p65 ratio: higher = more nuclear NF-kappaB p65
Rule for the call: 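Called active when z exceeds 3.3 or falls under -1.56 (median of Tlr4 controls), giving activity score of at least 50; no calls for control wells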
Calls: active = hit (p65 shift raised or lowered); inactive = no clear change

gene	p65 translocation robust z-score	nuclear/cytoplasmic p65 ratio, rep 1	nuclear/cytoplasmic p65 ratio, rep 2	low cell count flag	outcome
Tmem214 (GeneID 68796)	-0.11	1.44	1.51	enough cells to score	inactive
Or52a5 (GeneID 18369)	-1.55	1.24	1.09	enough cells to score	inactive
Reps1 (GeneID 19707)	0.84	1.53	1.18	enough cells to score	inactive
Slc67a1 (GeneID 18400)	0.81	1.53	1.73	enough cells to score	inactive
Htatsf1 (GeneID 72459)	-0.81	1.46	1.52	enough cells to score	inactive
Bclaf1 (GeneID 72567)	-0.17	1.54	1.63	enough cells to score	inactive
Actrt1 (GeneID 73360)	-0.4	1.45	1.72	enough cells to score	inactive
Tob1 (GeneID 22057)	-0.42	1.5	1.42	enough cells to score	inactive
Esd (GeneID 13885)	-0.02	1.44	1.38	enough cells to score	inactive
Tyw1 (GeneID 100929)	0.33	1.64	1.57	enough cells to score	inactive
Rasa4 (GeneID 54153)	-0.66	1.44	1.41	enough cells to score	inactive
F9 (GeneID 14071)	0.73	1.44	1.45	enough cells to score	inactive
Atp6v0e2 (GeneID 76252)	0.93	1.69	1.56	enough cells to score	inactive
Rai14 (GeneID 75646)	0.68	1.46	1.29	enough cells to score	inactive
Fam32a (GeneID 67922)		1.29	1.62	fewer than 50 cells per well; well left out of scoring	inactive
Nr1h2 (GeneID 22260)	0.15	1.15	1.42	enough cells to score	inactive
Gm2716 (GeneID 100040328)		1.52	1.34	fewer than 50 cells per well; well left out of scoring	inactive
Tox3 (GeneID 244579)	0.26	1.41	1.56	enough cells to score	inactive
Stt3a (GeneID 16430)		1.35	1.1	fewer than 50 cells per well; well left out of scoring	inactive
Gprc6a (GeneID 210198)	0.63	1.49	1.78	enough cells to score	inactive
Gde1 (GeneID 56209)		1.62	1.4	fewer than 50 cells per well; well left out of scoring	inactive
Cplx4 (GeneID 225644)	-1.2	1.19	1.36	enough cells to score	inactive
Trim26 (GeneID 22670)	0.14	1.6	1.46	enough cells to score	inactive
Trrap (GeneID 100683)	-1.41	1.41	1.45	enough cells to score	inactive
Baalc (GeneID 118452)	-0.73	1.5	1.68	enough cells to score	inactive
Nsdhl (GeneID 18194)	-0.25	1.63	1.18	enough cells to score	inactive
Fgd4 (GeneID 224014)	1.6	1.81	1.69	enough cells to score	inactive
Dync2li1 (GeneID 213575)		1.23	1.27	fewer than 50 cells per well; well left out of scoring	inactive
Mrpl21 (GeneID 353242)	-0.94	1.4	1.73	enough cells to score	inactive
Wdr46 (GeneID 57315)		1.45	1.4	fewer than 50 cells per well; well left out of scoring	inactive
Gng4 (GeneID 14706)	0.06	1.49	1.61	enough cells to score	inactive
Ccnd2 (GeneID 12444)	0.64	1.53	1.48	enough cells to score	inactive
Vwf (GeneID 22371)	-0.39	1.48	1.43	enough cells to score	inactive
Slc22a3 (GeneID 20519)	-0.06	1.34	1.29	enough cells to score	inactive
Adgre5 (GeneID 26364)	0.75	1.62	1.68	enough cells to score	inactive
Vmn1r216 (GeneID 171279)	1.47	1.57	1.4	enough cells to score	inactive
Ptgfrn (GeneID 19221)	-0.02	1.35	1.23	enough cells to score	inactive
Or4c108 (GeneID 258900)	0.7	1.77	1.68	enough cells to score	inactive
Pnma2 (GeneID 239157)	-1.28	1.28	1.08	enough cells to score	inactive
Ttc29 (GeneID 73301)	-0.32	1.38	1.35	enough cells to score	inactive
Smc1b (GeneID 140557)		1.31	1.12	fewer than 50 cells per well; well left out of scoring	inactive
Actbl2 (GeneID 238880)		1.18	1.3	fewer than 50 cells per well; well left out of scoring	inactive
Rap1gap (GeneID 110351)	0.68	1.57	1.66	enough cells to score	inactive
St8sia4 (GeneID 20452)		1.42	1.19	fewer than 50 cells per well; well left out of scoring	inactive
Epcam (GeneID 17075)	0.59	1.58	1.63	enough cells to score	inactive
Arhgdia (GeneID 192662)	-0.26	1.59	1.57	enough cells to score	inactive
Naif1 (GeneID 71254)	1.63	1.55	1.71	enough cells to score	inactive
Gfus (GeneID 22122)		1.22	1	fewer than 50 cells per well; well left out of scoring	inactive
Cib2 (GeneID 56506)	-0.82	1.3	1.32	enough cells to score	inactive
Trim68 (GeneID 101700)	-1.53	1.3	1.32	enough cells to score	inactive
Gal (GeneID 14419)	-0.17	1.55	1.49	enough cells to score	inactive
Rab5a (GeneID 271457)	1.53	1.77	1.72	enough cells to score	inactive
Il22b (GeneID 116849)	-0.97	1.35	1.25	enough cells to score	inactive
Dennd5b (GeneID 320560)	0.7	1.62	1.96	enough cells to score	inactive
Phax (GeneID 56698)	-2	1.12	1.06	enough cells to score	active
Metrnl (GeneID 210029)	0.79	1.68	1.99	enough cells to score	inactive
Kctd20 (GeneID 66989)	0.12	1.42	1.51	enough cells to score	inactive
C1ql3 (GeneID 227580)		1.39	1.34	fewer than 50 cells per well; well left out of scoring	inactive
Siah1b (GeneID 20438)	-1.22	1.07	1.12	enough cells to score	inactive

Only “low cell count flag”, for 7 of the entries above:
Dync2li1 (GeneID 213575)	fewer than 50 cells per well; well left out of scoring
Mrpl21 (GeneID 353242)	enough cells to score
Wdr46 (GeneID 57315)	fewer than 50 cells per well; well left out of scoring
Gng4 (GeneID 14706)	enough cells to score
Ccnd2 (GeneID 12444)	enough cells to score
Vwf (GeneID 22371)	enough cells to score
Slc22a3 (GeneID 20519)	enough cells to score
